Part of at least one peptide drawing is inferred or uncertain, most often the ends. *1 amine or outer side, *2 acyl side, *3 side chain or, on linkers, in order; H or OH if unused. Where a SMILES comes first, the peptide text is derived from it. Bridges are numbered along the chain shown (N, C = ends). [ ]: non-standard residue; d: D form. X1 = O=C(CC1(S[*:2])CCCCC1)[*:1]
Legend:
[1] = biological target: vasopressin receptors (V2-receptors); assay: vasopressin binding activity in renal medullary tissue, in vitro; conditions: medullary tissue of hog or human kidneys (species not given)
[2] = biological target: vasopressin stimulated adenylate cyclase; assay: vasopressin stimulated adenylate cyclase activation in renal medullary tissue, in vitro; format: biochemical; conditions: medullary tissue of hog or human kidneys (species not given)
[3] = test system: hydropenic rat; assay: Hydropenic Rat Screen (anti-ADH activity in vivo); conditions: male rats, intraperitoneal; dose required to lower urine osmolality to 300 m-Osmoles/kg

Compound	Kb [1] [nM]	Ki [2] [nM]	ED300 [3] [mg/kg]
CCOc1ccc(C[C@H]2NC(=O)CC3(CCCCC3)SSC[C@@H](C(=O)N3CCC[C@H]3C(=O)N[C@@H](CCC(N)=O)C(=O)N[C@@H](CCCNC(=N)N)C(N)=O)NC(=O)[C@H](CC(N)=O)NC(=O)[C@H](C(C)C)NC(=O)[C@H](Cc3ccccc3)NC2=O)cc1 [A] ([dY](Et)FVNCPQR-NH2; linker N-5 via X1)	7.4	9.4	0.0413
CCOc1ccc(C[C@H]2NC(=O)CC3(CCCCC3)SSC[C@@H](C(=O)N3CCC[C@H]3C(=O)N[C@@H](CCCNC(=N)N)C(=O)NCC(N)=O)NC(=O)[C@H](CC(N)=O)NC(=O)[C@H](C(C)C)NC(=O)[C@H](Cc3ccccc3)NC2=O)cc1 [B] ([dY](Et)FVNCPRG-NH2; linker N-5 via X1)	7.4	6.7	0.0112
CCOc1ccc(C[C@H]2NC(=O)CC3(CCCCC3)SSC[C@@H](C(=O)N3CCC[C@H]3C(=O)N[C@@H](CCCNC(=N)N)C(N)=O)NC(=O)[C@H](CC(N)=O)NC(=O)[C@H](C(C)C)NC(=O)[C@H](Cc3ccccc3)NC2=O)cc1 [C] ([dY](Et)FVNCPR-NH2; linker N-5 via X1)	12	4.5	0.0092

From US4742154A, “GLN- or ASN-vasopressin compounds” (Smithkline Beckman Corporation, priority 1985, dated 1988)
